Patent EP0234500A1, “Antiasthma inhalation compositions” (RORER PHARMACEUTICAL CORPORATION, priority 1986, dated 1987)
“And” between values parts separate entries of the source, which are not always exact repeats. Equal entries are not always repeated. Structures can show the parent of a compound that is named as a salt. At least one read-out could not be matched to a standard name with certainty.

Assay: Particle size distribution and MMAD of aerosol formulations
Type: physicochemical
Description: Other essential properties of aerosol formulations are the particle size distribution and the related mass median aerodynamic diameter of the particles. It is generally required that the effective range for inahalation products be approximately in the range of 1 to 8 micrometers (um). The particle size distribution helps, inter alia, to reduce loss on impaction on the tongue and oropharynx of the particles expelled from the pressurized container.

In the case of `CCCCCC(O)c1cccc(OCc2ccc3ccccc3n2)c1` (stereo not drawn) [Compound of Example 1, 2-(3-(l-Hydroxyhexyl)phenoxymethyl)quinoline hydrochloride], the “% Recovery” value (Compound of Example 1 1.0, ETOH 5.0, P 114 47, P 12 47, hydrochloride) is reported as 52.3% and 57.7% and 53.97%, the “% Recovery” value (Compound of Example 1 1.0, ETOH 10.0, P 114 25.0, P 12 75.0) is reported as 56.0% and the “% Recovery” value (Compound of Example 1 1.0, ETOH 10.0, P 114 35, P 12 53) is reported as 56.1%. For the same compound, the “% Recovery” value (Compound of Example 1 1.0, ETOH 10.0, P 114 44.5, P 12 44.5, hydrochloride) was 50.6% and 44.7%, the “% Recovery” value (Compound of Example 1 2.0, ETOH 10.0, P 114 44.00, P 12 44.00) was 38.7% and the “% Recovery” value (Compound of Example 1 2.5, ETOH 10.0, P 114 43.75, P 12 43.75, hydrochloride) was 34.6% and 35.9% and 33.8%. The “% Recovery” value (Compound of Example 1 3.0, ETOH 10.0, P 114 43.5, P 12 43.5) was 30.8%, the “% Recovery” value (Compound of Example 1 3.5, ETOH 10.0, P 114 43.25, P 12 43.25) was 34.6% and the “% Recovery” value (Compound of Example 1 5.0, ETOH 30.0, P 114 32.5, P 12 32.5) was 18.7%. The “% Recovery” value (Compound of Example 1 6.0, ETOH 20.0, P 114 29.6, P 12 44.4) was 20.87% and the “% Recovery” value (Compound of Example 1 9.0, ETOH 30.0, P 114 17, P 12 44) was 12.73%.
